Results as given in PubChem BioAssay AID1671190 (National Center for Advancing Translational Sciences (NCATS), 2021).
The whole screen tested about 580,000 compounds, of which about 6,100 (1.1%) were called active. Inconclusive results, whose numbers are uncertain, are shown with a selection of clear calls. Calls follow the shape of the dose curve; as a rule, active = well fitted inhibition curve with a large enough effect; inconclusive = small, poorly fitted or top-dose-only effect, or another doubt; inactive = no such curve, though single readings can be large or run the other way. Potencies beside an inconclusive call are fits to weak or partial responses and may not hold up.

The chains behind the UniProt entries cited, without tags or fusion partners.
UniProt P18054, whole entry, looked up: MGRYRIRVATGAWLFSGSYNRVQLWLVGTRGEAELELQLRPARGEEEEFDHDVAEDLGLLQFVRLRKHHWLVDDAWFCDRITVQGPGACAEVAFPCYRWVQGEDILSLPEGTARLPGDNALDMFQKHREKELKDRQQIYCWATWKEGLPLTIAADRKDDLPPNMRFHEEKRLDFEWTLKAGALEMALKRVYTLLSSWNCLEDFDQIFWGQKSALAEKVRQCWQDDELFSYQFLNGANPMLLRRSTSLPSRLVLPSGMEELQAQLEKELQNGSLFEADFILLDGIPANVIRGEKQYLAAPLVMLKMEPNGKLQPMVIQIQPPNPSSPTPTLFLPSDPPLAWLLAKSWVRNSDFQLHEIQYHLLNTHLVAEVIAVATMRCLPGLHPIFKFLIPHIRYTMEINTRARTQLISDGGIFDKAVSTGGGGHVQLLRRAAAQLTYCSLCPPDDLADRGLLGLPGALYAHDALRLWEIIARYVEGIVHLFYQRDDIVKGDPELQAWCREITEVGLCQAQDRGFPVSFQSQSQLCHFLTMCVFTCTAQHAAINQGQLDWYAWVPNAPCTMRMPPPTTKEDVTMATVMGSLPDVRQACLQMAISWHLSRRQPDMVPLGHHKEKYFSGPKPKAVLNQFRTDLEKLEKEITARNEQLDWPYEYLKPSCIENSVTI

molecular target: Polyunsaturated fatty acid lipoxygenase ALOX12 (Homo sapiens) (UniProt P18054); assay: Primary qHTS assay for inhibitors of human arachidonate 12S-lipoxygenase (ALOX12): Round 2; settings: purified 12hLO, xylenol orange hydroperoxide absorbance; activity change, negative = inhibition: at 108 µM (top of the series) unless noted
Outline: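 Hydroperoxide product was detected by ferrous iron/xylenol orange as the 573 to 405 nm absorbance ratio. Arachidonic acid at 40 uM (final) was turned over for 30 min at room temperature by 150 nM human 12hLO, pH 7.0 Hepes buffer, after 15 min compound preincubation.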
% is scaled to controls: 0 for no effect and ±100 for the full control effect; potency is read from the fitted curve at half-maximal effect.

Compound	activity change, negative = inhibition	Potency
O=[N+]([O-])c1cccnc1N1CCCCC1	inactive: -0.232%	
CCC1(c2ccc(Cl)cc2)NC(=O)N(CC(=O)NCc2ccc(F)cc2)C1=O (centres undefined)		inconclusive: 70.8 µM [inhibitor, partial curve, poor fit]
c1ccc(Nc2cc(Nc3ccccc3)[nH]n2)cc1		inconclusive: 126 µM [inhibitor, partial curve, poor fit]
CC1(C)C2CCC1(C)C(NC(=O)CCNC(=O)C1CCCC1)C2 (centres undefined)	inactive: 30.7%	
CN(Cc1ccc(-n2cccn2)cc1)CC1CCN(CCc2ccc(F)cc2)CC1		inconclusive: 31.6 µM [inhibitor, full curve]
Cc1ccc(-n2c(-c3cnccn3)n[nH]c2=S)cc1	inactive: -31.3%	
CCNC(=O)c1ccc(CNC(C)=O)cc1	inactive: 24.4%	
COC(=O)CNC(=O)COC(=O)c1ccc2ccccc2n1	inactive: -36.1%	
O=C(CSCc1ccc(F)cc1)N1CCN(c2ccccc2F)CC1		inconclusive: 141 µM [inhibitor, partial curve, poor fit]
COc1cc(OC)cc(C(=O)N2CCCC(c3noc(COc4ccccc4)n3)C2)c1 (centres undefined)	inactive: -12.9%	
COc1cc(/C=C/C(=O)O[C@H]2[C@H](O[C@@H]3O[C@@H](C)[C@H](O)[C@@H](O)[C@H]3O)[C@@H](O)[C@H](OCCc3ccc(O)c(OC)c3)O[C@@H]2CO)ccc1O		inconclusive: 39.8 µM [inhibitor, partial curve, poor fit]
Cn1cccc1Cc1nnc(SCC(=O)Nc2ccc3c(c2)OCCO3)n1-c1ccc(F)cc1	inactive: 475%	
CCCNC(=O)[C@H]1O[C@H]1C(=O)N[C@H](C(=O)N1CCC[C@@H]1C(=O)OC)C(C)CC (some centres undefined)	inconclusive: -49.5% [inhibitor] [at 57.4 µM]	
COc1ccc(NC(=O)c2ccco2)cc1NC(=O)COc1ccc(C)c(C)c1		inconclusive: 141 µM [inhibitor, single point]
CCOc1ccccc1N1CCN(Cc2cccc(OC)c2O)CC1		inconclusive: 17.8 µM [inhibitor, full curve]
COc1ccc(C(=O)NC(=S)Nc2ccccc2N2CCOCC2)cc1Br		active: 15.8 µM
C=CCNc1oc(COc2ccccc2C)nc1C#N		inconclusive: 28.2 µM [inhibitor, partial curve, poor fit]
CN(C)C[C@@H]1CN(c2ccncn2)C[C@H]1NC(=O)COc1ccc(F)cc1	inactive: 62.7%	
O=C(NCC1COc2ccccc2O1)C1(c2ccccc2)CCCC1 (centres undefined)		inconclusive: 89.1 µM [inhibitor, single point]
CSCc1ccc(C(=O)OCc2nc3ccccc3s2)o1		inconclusive: 56.2 µM [inhibitor, partial curve, poor fit]
CNS(=O)(=O)c1ccc(NC(=S)Nc2ccc3c(c2)OCO3)cc1		inconclusive: 50.1 µM [inhibitor, partial curve, poor fit]
Cc1ccc(C(=O)Nc2c(NCc3ccccc3)c3ccccc3oc2=O)cc1		inconclusive: 56.2 µM [inhibitor, partial curve, poor fit]

18 of these compounds, set out differently.
Compound,"activity change, negative = inhibition",Potency
O=[N+]([O-])c1cccnc1N1CCCCC1,inactive: -0.232%,
CCC1(c2ccc(Cl)cc2)NC(=O)N(CC(=O)NCc2ccc(F)cc2)C1=O (centres undefined),,"inconclusive: 70.8 µM [inhibitor, partial curve, poor fit]"
c1ccc(Nc2cc(Nc3ccccc3)[nH]n2)cc1,,"inconclusive: 126 µM [inhibitor, partial curve, poor fit]"
CC1(C)C2CCC1(C)C(NC(=O)CCNC(=O)C1CCCC1)C2 (centres undefined),inactive: 30.7%,
CN(Cc1ccc(-n2cccn2)cc1)CC1CCN(CCc2ccc(F)cc2)CC1,,"inconclusive: 31.6 µM [inhibitor, full curve]"
Cc1ccc(-n2c(-c3cnccn3)n[nH]c2=S)cc1,inactive: -31.3%,
COC(=O)CNC(=O)COC(=O)c1ccc2ccccc2n1,inactive: -36.1%,
O=C(CSCc1ccc(F)cc1)N1CCN(c2ccccc2F)CC1,,"inconclusive: 141 µM [inhibitor, partial curve, poor fit]"
COc1cc(OC)cc(C(=O)N2CCCC(c3noc(COc4ccccc4)n3)C2)c1 (centres undefined),inactive: -12.9%,
COc1cc(/C=C/C(=O)O[C@H]2[C@H](O[C@@H]3O[C@@H](C)[C@H](O)[C@@H](O)[C@H]3O)[C@@H](O)[C@H](OCCc3ccc(O)c(OC)c3)O[C@@H]2CO)ccc1O,,"inconclusive: 39.8 µM [inhibitor, partial curve, poor fit]"
CCOc1ccccc1N1CCN(Cc2cccc(OC)c2O)CC1,,"inconclusive: 17.8 µM [inhibitor, full curve]"
COc1ccc(C(=O)NC(=S)Nc2ccccc2N2CCOCC2)cc1Br,,active: 15.8 µM
C=CCNc1oc(COc2ccccc2C)nc1C#N,,"inconclusive: 28.2 µM [inhibitor, partial curve, poor fit]"
CN(C)C[C@@H]1CN(c2ccncn2)C[C@H]1NC(=O)COc1ccc(F)cc1,inactive: 62.7%,
O=C(NCC1COc2ccccc2O1)C1(c2ccccc2)CCCC1 (centres undefined),,"inconclusive: 89.1 µM [inhibitor, single point]"
CSCc1ccc(C(=O)OCc2nc3ccccc3s2)o1,,"inconclusive: 56.2 µM [inhibitor, partial curve, poor fit]"
CNS(=O)(=O)c1ccc(NC(=S)Nc2ccc3c(c2)OCO3)cc1,,"inconclusive: 50.1 µM [inhibitor, partial curve, poor fit]"
Cc1ccc(C(=O)Nc2c(NCc3ccccc3)c3ccccc3oc2=O)cc1,,"inconclusive: 56.2 µM [inhibitor, partial curve, poor fit]"

The list goes on.

Compound	activity change, negative = inhibition	Potency
O=C(Nc1ccccc1N1CCN(C(=O)c2ccccc2)CC1)c1cccc(Cl)c1	inactive: -0.97%	
CCOC(=O)C(NC(=O)Cc1ccccc1)(Nc1cc(C)on1)C(F)(F)F (centres undefined)		inconclusive: 0.316 µM [inhibitor, full curve, poor fit]
CCCn1c(SCC(=O)N2CCN(c3ccc(OC)cc3)CC2)nc2c1c(=O)n(C)c(=O)n2C		inconclusive: 100 µM [inhibitor, single point]
c1cc2cc(CNc3nc(NCC4CC4)nc4ccsc34)ccc2o1		inconclusive: 56.2 µM [inhibitor, partial curve, poor fit]
COc1ccc(N(C(=O)Cc2cccs2)C2C=CS(=O)(=O)C2)cc1 (centres undefined)		inconclusive: 100 µM [inhibitor, partial curve, poor fit]
CCOC(=O)/C(C#N)=C1/SC(CC)C(=O)N1c1ccc(Br)cc1 (centres undefined)		inconclusive: 44.7 µM [inhibitor, partial curve, poor fit]
COc1ccc(C=O)cc1CN1CCCN(Cc2ccccc2F)S1(=O)=O		inconclusive: 89.1 µM [inhibitor, single point]
CCN1CCC(N(Cc2cccc(OC)c2)C(=O)Nc2ccccc2OC)CC1		inconclusive: 44.7 µM [inhibitor, partial curve, poor fit]
CC(=O)c1c(C)[nH]c(C(=O)CN2C(=O)NC(C)(C)C2=O)c1C		inconclusive: 56.2 µM [inhibitor, partial curve, poor fit]
Cc1cc(C(=O)Nc2ccccc2N2CCCCC2)no1		inconclusive: 89.1 µM [inhibitor, partial curve, poor fit]
CC(C)(C)n1nnnc1SCC(=O)N1N=C(c2cc3ccccc3o2)CC1c1ccco1 (centres undefined)		inconclusive: 15.8 µM [inhibitor, full curve]
COc1cccc(-c2csc(Nc3ccc(Oc4ccccc4)cc3)n2)c1		inconclusive: 8.91 µM [inhibitor, full curve, poor fit]
CC(C)NC(=O)c1ccccc1NC(=O)C(Cl)Cl		inconclusive: 25.1 µM [inhibitor, full curve]
CC(=O)Nc1sc(C)c(C)c1C(=O)OCC(=O)Nc1ccc(S(N)(=O)=O)cc1		inconclusive: 70.8 µM [inhibitor, partial curve, poor fit]
COc1ccc(-n2c(=O)c3c4c(sc3n3c(=S)[nH]nc23)CCCC4)cc1		inconclusive: 44.7 µM [inhibitor, partial curve, poor fit]
COCc1nc2nc(-c3ccccc3)c(-c3ccccc3OC)cc2n1C		inconclusive: 44.7 µM [inhibitor, full curve]
CCN1c2ccccc2-c2nc(SCC(=O)Nc3cccc(C)c3C)ncc2S1(=O)=O		inconclusive: 63.1 µM [inhibitor, partial curve, poor fit]
COc1ccc(/C=C2\SC(=O)N(CCNC(=O)C3CCN(S(=O)(=O)c4cccs4)CC3)C2=O)cc1	inactive: -13.8%	
O=C(c1ccco1)N1CCN(C(=O)c2ccc(-c3ccc([N+](=O)[O-])cc3)o2)CC1		inconclusive: 15.8 µM [inhibitor, full curve, poor fit]
CC1CCN(C(=O)c2cc(-c3ccccc3O)on2)CC1	inactive: -0.83%	
CCC(=O)NNc1cc(=O)c2c(=O)n(C)c(=O)n(C)c2[nH]1		inconclusive: 39.8 µM [inhibitor, partial curve, poor fit]

Compound	activity change, negative = inhibition	Potency
CC(C)(C)NC(=O)CSc1cc(C(=O)NC2CC2)c2ccccc2n1	inactive: 14.1%	
N#CCSc1nnc(C2CCCCC2)n1-c1ccccc1	inactive: 20.3%	
Cc1cccc(NC(=S)NCC(C)CSc2ccc(Cl)cc2)c1 (centres undefined)		active: 31.6 µM
O=C1N(C2CCCCC2)C[C@H]2CN(S(=O)(=O)c3ccc(F)cc3)CCN12		inconclusive: 25.1 µM [inhibitor, full curve, poor fit]
CN(C)S(=O)(=O)c1ccc(NCC2COc3ccccc3O2)c([N+](=O)[O-])c1 (centres undefined)	inactive: -11.9%	
O=C(Cn1ncc2c([nH]c3ccccc32)c1=O)NCCCN1CCN(c2ccc(F)cc2)CC1		inconclusive: 28.2 µM [inhibitor, partial curve, poor fit]
COc1ccc(CN(C)CC(O)COC(c2ccc(OC)cc2)c2ccc(OC)cc2)cc1 (centres undefined)		inconclusive: 89.1 µM [inhibitor, single point]
CCc1ccccc1NC(=O)N1CCOc2ccccc21		inconclusive: 50.1 µM [inhibitor, partial curve, poor fit]
O=C(CN1C(=O)/C(=C2\SC(=S)N(C3CCS(=O)(=O)C3)C2=O)c2ccccc21)Nc1ccc(F)cc1 (centres undefined)	inactive: 98.3%	
FC(F)(F)c1ccccc1-c1nccc(-n2ccnc2)n1		inconclusive: 44.7 µM [inhibitor, partial curve, poor fit]
CCN(CC)C(=O)C1=C(C)N(Cc2ccc(C(C)(C)C)cc2)C(=O)C(CC(=O)NCCCCc2ccccc2)C1 (centres undefined)		inconclusive: 112 µM [inhibitor, single point]
CN1C[C@@H](NS(=O)(=O)c2ccc(Cl)cc2)C[C@H]1c1nc(-c2ccc(F)cc2)no1		inconclusive: 44.7 µM [inhibitor, partial curve]
COc1ccc(C(C#N)N2CCC(c3ccccc3)=N2)cc1 (centres undefined)	inactive: -13%	
O=C(NCc1n[nH]c(=S)n1-c1cccc(Cl)c1)c1cccs1		inconclusive: 50.1 µM [inhibitor, partial curve, poor fit]
Cc1cccc(CNc2ccnc(-c3ccc(C(=O)N(C)C)cc3)n2)c1		inconclusive: 79.4 µM [inhibitor, partial curve, poor fit]
CCC(=O)Nc1ccc(-c2csc(NC)n2)cc1		inconclusive: 35.5 µM [inhibitor, partial curve, poor fit]
Cc1ccc(S(=O)(=O)Nc2ccccc2C(=O)Nc2nc(-c3ccc(F)cc3)cs2)cc1		inconclusive: 79.4 µM [inhibitor, partial curve, poor fit]
COc1cccc(CNC(N)=O)c1	inactive: -1.33%	
N#C/C(=C(/O)CCl)c1nc(-c2ccccc2)cs1		inconclusive: 25.1 µM [inhibitor, partial curve, poor fit]
COc1ccc(CN2C[C@H](O)C[C@H]2c2nc(-c3ccc(C)c(F)c3)no2)cc1		inconclusive: 35.5 µM [inhibitor, full curve]
